Results are given in words; binding and its absence hold for the method and conditions named. In cells and extracts the contact can be indirect. Binding can be weak; no strength is given.

Chains of the proteins cited; added tags and fusions are not shown. Lines headed by an entry give the natural chain unless they say otherwise; changes in a name come on top.
UniProt O75030: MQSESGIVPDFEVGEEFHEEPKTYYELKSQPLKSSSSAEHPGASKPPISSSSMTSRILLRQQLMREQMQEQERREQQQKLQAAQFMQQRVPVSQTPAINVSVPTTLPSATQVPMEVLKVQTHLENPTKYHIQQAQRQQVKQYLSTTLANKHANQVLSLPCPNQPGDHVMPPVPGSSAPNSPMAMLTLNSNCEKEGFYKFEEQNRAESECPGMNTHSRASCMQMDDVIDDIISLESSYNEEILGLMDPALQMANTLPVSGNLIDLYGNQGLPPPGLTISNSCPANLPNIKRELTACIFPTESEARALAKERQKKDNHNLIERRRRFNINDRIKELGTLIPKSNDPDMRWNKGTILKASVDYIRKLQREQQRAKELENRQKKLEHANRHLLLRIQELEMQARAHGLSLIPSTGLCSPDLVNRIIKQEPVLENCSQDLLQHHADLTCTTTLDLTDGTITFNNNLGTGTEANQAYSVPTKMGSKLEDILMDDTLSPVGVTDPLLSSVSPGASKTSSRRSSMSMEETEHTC
UniProt O00505: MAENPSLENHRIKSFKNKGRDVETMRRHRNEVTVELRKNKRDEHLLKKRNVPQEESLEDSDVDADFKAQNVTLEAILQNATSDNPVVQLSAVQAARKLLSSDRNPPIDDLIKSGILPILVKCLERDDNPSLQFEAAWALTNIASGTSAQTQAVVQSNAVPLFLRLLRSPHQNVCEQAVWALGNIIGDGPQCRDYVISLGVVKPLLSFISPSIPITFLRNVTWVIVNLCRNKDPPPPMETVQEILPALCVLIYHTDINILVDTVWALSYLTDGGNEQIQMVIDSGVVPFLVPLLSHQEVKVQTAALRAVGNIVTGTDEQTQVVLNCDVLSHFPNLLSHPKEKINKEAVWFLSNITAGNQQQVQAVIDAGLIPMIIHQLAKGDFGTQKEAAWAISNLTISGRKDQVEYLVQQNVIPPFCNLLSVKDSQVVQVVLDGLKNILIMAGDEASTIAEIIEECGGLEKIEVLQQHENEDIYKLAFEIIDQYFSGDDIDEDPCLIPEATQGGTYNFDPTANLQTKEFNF
UniProt A9QM74: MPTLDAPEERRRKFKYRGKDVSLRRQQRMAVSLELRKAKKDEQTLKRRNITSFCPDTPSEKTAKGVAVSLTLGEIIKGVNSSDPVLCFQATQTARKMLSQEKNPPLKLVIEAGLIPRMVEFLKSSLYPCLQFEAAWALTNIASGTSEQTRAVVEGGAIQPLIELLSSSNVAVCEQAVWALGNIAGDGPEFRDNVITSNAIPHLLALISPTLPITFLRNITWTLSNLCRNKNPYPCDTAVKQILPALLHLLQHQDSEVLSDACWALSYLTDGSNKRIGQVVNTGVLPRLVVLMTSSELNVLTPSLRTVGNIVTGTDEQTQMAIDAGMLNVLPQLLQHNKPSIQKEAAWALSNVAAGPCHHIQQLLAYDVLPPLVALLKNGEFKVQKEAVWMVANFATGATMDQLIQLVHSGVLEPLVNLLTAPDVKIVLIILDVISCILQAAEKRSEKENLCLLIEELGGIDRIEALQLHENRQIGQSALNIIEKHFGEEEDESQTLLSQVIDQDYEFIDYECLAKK

For this test, the target named is HA-MITF (S49A) (human) (UniProt O75030). The test is described as follows: co-IP; HA-IP from MCF-7 PR cells transfected with the indicated plasmids; with inhibition of OGT or with PUGNAc; SDS-PAGE and immunoblot. (In general: Immunoblotting shows a protein as a band on a membrane.)

“FLAG-importin α4 (from UniProt O00505 1-521)”: the binding result was “binds”.

Turning to “FLAG-importin α7 (from UniProt O60684 1-536)”, the binding entry is “binds”.

As to importin α8 (from UniProt A9QM74 1-516), the binding result is recorded as “binds”.

The record behind these values is publication PMC11222436.
